{"sequences": {"note": "The chains behind the UniProt entries cited, without tags or fusion partners. Residues count along the entry.", "UniProt P07711, residues 114-333": "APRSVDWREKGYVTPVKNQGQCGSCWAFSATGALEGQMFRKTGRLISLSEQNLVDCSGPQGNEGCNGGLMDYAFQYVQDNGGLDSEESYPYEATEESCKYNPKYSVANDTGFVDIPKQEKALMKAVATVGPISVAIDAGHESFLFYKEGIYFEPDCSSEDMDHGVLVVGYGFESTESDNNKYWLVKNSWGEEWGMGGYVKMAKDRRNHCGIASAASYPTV"}, "source": "patent US20110098242A1", "about": "“Methods and Compositions for Diagnosing and Treating Cervical Intraepithelial Neoplasia and Cervical Cancer” (priority 2008, published 2011)", "biological_target": "cathepsin L (UniProt P07711)", "test": "co-immunoprecipitation with anti-FLAG antibody from transfected HeLa cell lysates, Western blot; wild type is the reference", "note": "These are yes or no findings as the source states them, for the method shown. In cells and extracts the contact can be indirect. Some binding calls cover weakened binding; strength is not graded here. Where a sequence is shown, tags or fusion partners need not be part of it.", "data": [{"binder": "cystatin E/M protein (wild type, human), expressed from plasmid p3XFLAG-CMV-10 in transfected HeLa cells (protein, not shown: small tags and cut ends) RPQERMVGELRDLSPDDPQVQKAAQAAVASYNMGSNSIYYFRDTHIIKAQSQLVAGIKYFLTMEMGSTDCRKTRVTGDHVDLTTCPLAAGAQQEKLRCDFEVLVVPWQNSSQLLKHNCVQM", "values": [{"measurement": "binding", "result": "binds"}]}]}
